From the supplement of paper PMC10849652
This is one part of the list.

Sequences of proteins named here, by UniProt entry; tags and fusion partners are left off. A change or cut given only in a name is not applied to a line headed by its entry.
UniProt P50579: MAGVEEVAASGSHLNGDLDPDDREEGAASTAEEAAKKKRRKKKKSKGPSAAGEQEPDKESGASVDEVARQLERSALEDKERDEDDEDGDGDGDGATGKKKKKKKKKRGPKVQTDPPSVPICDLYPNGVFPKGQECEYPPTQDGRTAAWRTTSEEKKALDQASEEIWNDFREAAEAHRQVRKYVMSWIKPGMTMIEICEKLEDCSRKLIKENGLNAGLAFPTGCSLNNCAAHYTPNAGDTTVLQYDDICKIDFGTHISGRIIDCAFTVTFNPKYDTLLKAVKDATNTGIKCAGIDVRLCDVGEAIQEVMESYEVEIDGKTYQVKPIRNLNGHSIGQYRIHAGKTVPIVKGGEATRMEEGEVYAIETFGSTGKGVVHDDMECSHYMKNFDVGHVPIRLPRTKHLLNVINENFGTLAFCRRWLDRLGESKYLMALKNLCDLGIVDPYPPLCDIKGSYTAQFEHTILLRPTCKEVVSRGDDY
UniProt Q8NBP5: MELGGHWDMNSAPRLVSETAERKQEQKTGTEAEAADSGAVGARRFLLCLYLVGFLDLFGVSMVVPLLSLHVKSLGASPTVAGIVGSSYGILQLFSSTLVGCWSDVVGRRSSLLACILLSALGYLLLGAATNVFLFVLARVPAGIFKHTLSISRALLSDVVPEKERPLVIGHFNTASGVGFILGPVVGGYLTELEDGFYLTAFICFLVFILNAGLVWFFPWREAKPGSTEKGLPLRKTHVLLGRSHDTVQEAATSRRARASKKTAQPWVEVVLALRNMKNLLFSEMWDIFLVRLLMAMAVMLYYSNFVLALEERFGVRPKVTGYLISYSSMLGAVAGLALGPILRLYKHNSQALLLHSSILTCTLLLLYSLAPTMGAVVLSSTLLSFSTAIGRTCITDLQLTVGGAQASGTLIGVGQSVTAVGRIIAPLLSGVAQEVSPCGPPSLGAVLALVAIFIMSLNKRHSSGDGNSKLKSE
UniProt Q9NWA0: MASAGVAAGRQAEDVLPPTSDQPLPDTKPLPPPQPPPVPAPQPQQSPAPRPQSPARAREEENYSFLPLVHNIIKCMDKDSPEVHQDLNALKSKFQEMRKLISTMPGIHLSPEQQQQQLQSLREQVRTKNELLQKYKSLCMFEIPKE
UniProt P55082: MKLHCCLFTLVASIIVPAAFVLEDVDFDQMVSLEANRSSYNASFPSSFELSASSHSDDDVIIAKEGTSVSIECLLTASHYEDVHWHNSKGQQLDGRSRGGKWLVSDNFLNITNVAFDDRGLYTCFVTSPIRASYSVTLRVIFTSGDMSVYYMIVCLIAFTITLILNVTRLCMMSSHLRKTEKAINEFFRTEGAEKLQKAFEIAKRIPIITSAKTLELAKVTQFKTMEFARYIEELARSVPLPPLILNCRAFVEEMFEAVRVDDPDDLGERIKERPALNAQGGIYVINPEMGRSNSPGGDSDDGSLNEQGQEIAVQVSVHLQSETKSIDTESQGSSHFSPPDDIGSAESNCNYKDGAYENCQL
UniProt Q6ZN04: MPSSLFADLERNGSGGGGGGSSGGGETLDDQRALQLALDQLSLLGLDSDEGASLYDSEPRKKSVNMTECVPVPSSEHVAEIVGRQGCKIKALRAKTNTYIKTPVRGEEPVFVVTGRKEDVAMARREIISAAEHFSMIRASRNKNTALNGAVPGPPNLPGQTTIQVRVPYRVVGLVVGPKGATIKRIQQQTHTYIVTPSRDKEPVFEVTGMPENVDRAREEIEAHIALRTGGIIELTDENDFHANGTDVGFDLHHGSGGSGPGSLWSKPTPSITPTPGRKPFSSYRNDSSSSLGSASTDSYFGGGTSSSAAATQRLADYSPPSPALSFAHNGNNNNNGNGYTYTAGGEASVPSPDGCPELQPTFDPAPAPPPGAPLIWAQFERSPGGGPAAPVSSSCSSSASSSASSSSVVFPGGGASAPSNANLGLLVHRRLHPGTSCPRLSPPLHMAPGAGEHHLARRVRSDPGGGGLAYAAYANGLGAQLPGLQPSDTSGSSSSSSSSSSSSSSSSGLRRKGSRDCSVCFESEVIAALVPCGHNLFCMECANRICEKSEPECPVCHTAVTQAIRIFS
UniProt Q96DN6: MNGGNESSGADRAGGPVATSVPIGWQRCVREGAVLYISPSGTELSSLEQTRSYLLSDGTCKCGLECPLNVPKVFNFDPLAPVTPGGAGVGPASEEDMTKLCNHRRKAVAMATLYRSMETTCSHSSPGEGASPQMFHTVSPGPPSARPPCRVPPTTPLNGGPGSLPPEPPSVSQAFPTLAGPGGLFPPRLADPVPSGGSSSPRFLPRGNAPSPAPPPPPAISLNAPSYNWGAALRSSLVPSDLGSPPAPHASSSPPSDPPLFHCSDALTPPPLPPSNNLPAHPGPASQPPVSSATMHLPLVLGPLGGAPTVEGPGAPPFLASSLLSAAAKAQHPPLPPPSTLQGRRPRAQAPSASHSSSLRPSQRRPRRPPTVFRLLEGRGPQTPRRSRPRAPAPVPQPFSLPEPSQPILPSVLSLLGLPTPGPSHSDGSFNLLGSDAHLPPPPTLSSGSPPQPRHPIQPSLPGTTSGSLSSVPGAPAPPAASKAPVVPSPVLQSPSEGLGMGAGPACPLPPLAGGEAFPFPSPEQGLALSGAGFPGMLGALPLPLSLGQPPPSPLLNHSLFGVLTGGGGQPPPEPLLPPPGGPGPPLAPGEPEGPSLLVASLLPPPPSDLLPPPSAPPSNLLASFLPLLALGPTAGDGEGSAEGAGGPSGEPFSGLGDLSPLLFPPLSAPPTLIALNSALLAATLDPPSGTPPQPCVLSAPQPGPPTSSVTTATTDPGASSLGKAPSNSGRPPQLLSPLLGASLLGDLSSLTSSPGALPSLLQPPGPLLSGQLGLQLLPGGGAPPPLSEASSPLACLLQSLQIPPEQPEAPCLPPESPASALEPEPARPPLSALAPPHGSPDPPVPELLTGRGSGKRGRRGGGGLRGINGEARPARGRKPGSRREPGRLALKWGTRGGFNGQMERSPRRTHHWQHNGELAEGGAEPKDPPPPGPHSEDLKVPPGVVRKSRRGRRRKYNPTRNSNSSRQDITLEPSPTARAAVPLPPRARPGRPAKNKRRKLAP
UniProt Q71SY5: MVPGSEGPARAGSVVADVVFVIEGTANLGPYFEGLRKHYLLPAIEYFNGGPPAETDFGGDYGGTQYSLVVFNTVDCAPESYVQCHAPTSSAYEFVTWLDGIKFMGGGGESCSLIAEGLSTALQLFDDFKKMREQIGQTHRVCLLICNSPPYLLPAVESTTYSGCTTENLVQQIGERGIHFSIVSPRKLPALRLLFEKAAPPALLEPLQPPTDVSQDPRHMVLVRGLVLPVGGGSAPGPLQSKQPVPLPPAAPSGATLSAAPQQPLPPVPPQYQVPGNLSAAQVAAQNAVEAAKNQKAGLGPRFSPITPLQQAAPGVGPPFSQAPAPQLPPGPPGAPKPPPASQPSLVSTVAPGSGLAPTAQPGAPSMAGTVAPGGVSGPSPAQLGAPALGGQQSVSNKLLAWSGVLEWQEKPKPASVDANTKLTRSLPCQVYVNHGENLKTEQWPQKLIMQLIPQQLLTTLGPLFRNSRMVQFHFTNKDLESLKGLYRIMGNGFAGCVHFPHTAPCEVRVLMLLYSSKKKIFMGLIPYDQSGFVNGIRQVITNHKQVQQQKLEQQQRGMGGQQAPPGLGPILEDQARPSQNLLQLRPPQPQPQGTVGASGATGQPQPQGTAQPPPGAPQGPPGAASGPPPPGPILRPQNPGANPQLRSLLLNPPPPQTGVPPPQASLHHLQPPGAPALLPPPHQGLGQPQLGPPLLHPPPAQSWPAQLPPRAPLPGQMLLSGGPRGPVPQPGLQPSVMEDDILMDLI
UniProt O95243: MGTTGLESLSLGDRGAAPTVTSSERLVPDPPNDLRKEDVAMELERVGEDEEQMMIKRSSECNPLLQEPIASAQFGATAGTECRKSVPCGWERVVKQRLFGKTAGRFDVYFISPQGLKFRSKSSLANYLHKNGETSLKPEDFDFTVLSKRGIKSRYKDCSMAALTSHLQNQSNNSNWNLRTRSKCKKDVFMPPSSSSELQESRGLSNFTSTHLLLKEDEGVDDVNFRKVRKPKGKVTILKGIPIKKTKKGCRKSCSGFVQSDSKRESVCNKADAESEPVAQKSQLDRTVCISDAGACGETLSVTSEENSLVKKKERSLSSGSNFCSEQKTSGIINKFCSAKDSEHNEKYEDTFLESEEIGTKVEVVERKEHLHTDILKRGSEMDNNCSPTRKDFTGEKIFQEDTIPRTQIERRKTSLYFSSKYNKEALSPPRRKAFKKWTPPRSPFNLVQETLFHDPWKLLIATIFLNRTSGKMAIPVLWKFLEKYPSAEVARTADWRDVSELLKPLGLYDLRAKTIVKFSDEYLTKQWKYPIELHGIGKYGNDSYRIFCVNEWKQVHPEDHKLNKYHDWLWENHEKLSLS
UniProt Q13503: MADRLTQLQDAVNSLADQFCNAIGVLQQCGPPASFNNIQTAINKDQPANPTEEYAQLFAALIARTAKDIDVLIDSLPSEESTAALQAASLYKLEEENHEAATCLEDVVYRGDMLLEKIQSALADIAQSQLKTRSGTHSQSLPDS
UniProt A1L020: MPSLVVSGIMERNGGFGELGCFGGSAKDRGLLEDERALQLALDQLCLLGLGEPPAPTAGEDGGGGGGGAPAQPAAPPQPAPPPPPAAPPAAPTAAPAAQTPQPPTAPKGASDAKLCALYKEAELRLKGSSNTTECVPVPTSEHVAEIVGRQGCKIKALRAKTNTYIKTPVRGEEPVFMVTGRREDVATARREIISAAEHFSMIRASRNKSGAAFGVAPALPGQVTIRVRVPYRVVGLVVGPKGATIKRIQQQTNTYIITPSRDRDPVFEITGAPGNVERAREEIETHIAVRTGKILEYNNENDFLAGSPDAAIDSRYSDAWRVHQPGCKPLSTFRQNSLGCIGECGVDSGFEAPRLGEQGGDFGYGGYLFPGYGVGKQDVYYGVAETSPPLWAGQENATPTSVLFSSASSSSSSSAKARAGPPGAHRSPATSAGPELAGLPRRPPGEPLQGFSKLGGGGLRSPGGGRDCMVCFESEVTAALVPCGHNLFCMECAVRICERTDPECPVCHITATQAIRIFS
UniProt Q9Y3C7: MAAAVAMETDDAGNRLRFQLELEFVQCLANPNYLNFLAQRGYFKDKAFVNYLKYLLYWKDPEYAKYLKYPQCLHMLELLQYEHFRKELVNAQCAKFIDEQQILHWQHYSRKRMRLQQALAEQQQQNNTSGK
UniProt O43934: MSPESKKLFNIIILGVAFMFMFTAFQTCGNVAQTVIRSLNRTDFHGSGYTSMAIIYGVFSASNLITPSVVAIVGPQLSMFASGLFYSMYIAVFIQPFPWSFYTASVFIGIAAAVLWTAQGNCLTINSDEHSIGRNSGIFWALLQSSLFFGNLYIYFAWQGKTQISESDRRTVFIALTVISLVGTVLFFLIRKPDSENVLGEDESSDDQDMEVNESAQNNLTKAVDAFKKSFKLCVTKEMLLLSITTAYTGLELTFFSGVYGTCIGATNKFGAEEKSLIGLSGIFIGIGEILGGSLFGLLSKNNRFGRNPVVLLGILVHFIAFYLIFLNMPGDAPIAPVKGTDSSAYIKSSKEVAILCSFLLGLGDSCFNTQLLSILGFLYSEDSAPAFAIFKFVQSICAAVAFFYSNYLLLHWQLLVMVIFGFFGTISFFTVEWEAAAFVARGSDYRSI
UniProt Q8N635: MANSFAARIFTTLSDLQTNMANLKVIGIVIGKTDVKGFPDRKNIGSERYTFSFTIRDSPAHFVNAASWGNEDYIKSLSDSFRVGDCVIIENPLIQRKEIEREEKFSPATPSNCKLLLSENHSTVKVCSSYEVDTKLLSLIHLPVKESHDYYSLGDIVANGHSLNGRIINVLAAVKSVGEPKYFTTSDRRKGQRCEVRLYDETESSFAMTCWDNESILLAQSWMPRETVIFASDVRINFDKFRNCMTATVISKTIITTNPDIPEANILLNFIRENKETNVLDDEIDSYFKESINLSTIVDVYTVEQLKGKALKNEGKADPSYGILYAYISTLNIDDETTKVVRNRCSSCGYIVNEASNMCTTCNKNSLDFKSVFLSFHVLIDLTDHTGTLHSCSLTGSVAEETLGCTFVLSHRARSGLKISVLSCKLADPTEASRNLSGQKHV
UniProt O15151: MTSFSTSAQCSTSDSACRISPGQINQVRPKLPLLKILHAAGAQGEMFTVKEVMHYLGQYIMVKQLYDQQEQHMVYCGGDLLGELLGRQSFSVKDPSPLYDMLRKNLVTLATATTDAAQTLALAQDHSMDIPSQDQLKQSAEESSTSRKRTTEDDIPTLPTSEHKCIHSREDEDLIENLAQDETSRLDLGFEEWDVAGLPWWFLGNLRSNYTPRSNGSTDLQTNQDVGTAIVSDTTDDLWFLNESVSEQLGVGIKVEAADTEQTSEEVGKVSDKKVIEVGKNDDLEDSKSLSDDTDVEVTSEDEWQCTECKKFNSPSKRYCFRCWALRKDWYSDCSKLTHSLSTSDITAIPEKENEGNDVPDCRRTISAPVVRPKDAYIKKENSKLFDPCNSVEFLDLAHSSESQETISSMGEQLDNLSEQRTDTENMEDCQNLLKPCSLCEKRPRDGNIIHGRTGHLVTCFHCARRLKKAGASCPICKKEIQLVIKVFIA

Key:
Assay in all cases: log2 fold change, soluble protein after heating vs DMSO (PISA); higher = thermal stabilisation; K562 lysate, 10 uM; active = over 0.2 and 3.5 SD of the protein, either way, in both replicates (recomputed)
[1] = compound: CCCS(=O)(=O)Nc1ccc(F)c(C(=O)c2c[nH]c3ncc(Cl)cc23)c1F
Procedure, shortened: (§1)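 Thermal stability, expressed as log-two fold change relative to solvent controls, is given from duplicates. Crude K562 extract in PBS pH 7.4 with 1 mM MgCl2, at 1 mg/mL protein, was treated with 10 μM compound for 30 min and heated in aliquots for 3 min across 48°C-58°C. After pooling, adjustment to 0.5% NP-40 at 4°C and centrifugation at 21,000xg for 90 min, supernatant protein was measured by TMTpro 16plex LC-MS/MS with channel sums equalised.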

barasertib = compound: CCN(CCCOc1ccc2c(Nc3cc(CC(=O)Nc4cccc(F)c4)[nH]n3)ncnc2c1)CCOP(=O)(O)O [barasertib]
Procedure, shortened: as §1

volasertib = compound: CC[C@@H]1C(=O)N(C)c2cnc(Nc3ccc(C(=O)N[C@H]4CC[C@H](N5CCN(CC6CC6)CC5)CC4)cc3OC)nc2N1C(C)C [volasertib]
Procedure, shortened: as §1

sotrastaurin = compound: CN1CCN(c2nc(C3=C(c4c[nH]c5ccccc45)C(=O)NC3=O)c3ccccc3n2)CC1 [sotrastaurin]
Procedure, shortened: as §1

[2] = compound: CNC(=O)C1=CC=CC=C1NC2=NC(=NC=C2Cl)NC3=C(C=C(C=C3)N4CCOCC4)OC
Procedure, shortened: as §1

[3] = compound: COc1cc2nc(-c3cc(F)ccc3O)nc(N[C@@H]3CNC[C@H]3C(C)(C)O)c2cc1OC
Procedure, shortened: as §1

[4] = compound: CC[C@@H]1C(=O)N(C)c2cnc(Nc3ccc(C(=O)NC4CCN(C)CC4)cc3OC)nc2N1C1CCCC1
Procedure, shortened: as §1

[5] = compound: CCn1c(C(=O)N(C2CC2)C2CC2)cc2c3c(ncn3C)c(Nc3cc(C)n(C)n3)nc21
Procedure, shortened: as §1

[6] = compound: CCn1cc(-c2ccnc3[nH]c(-c4cccc(CN(C)C)c4)cc23)c(-c2ccc(NC(=O)N(C)C)cc2)n1
Procedure, shortened: as §1

[7] = compound: CN1CCC(CNc2ccc3ncc(-c4cccc(OC(F)(F)F)c4)n3n2)CC1
Procedure, shortened: as §1

alvocidib = compound: CN1CC[C@H](c2c(O)cc(O)c3c(=O)cc(-c4ccccc4Cl)oc23)[C@H](O)C1 [alvocidib]
Procedure, shortened: as §1

Tubastatin A = compound: CN1CCc2c(c3ccccc3n2Cc2ccc(C(=O)NO)cc2)C1 [Tubastatin A]
Procedure, shortened: as §1

encorafenib = compound: COC(=O)N[C@@H](C)CNc1nccc(-c2cn(C(C)C)nc2-c2cc(Cl)cc(NS(C)(=O)=O)c2F)n1 [encorafenib]
Procedure, shortened: as §1

[8] = compound: COC(=O)[C@H](CCSC)NC(=O)C1=C(C=C(C=C1)NC[C@H](CS)N)C2=CC=CC=C2
Procedure, shortened: as §1

alisertib = compound: COc1cc(Nc2ncc3c(n2)-c2ccc(Cl)cc2C(c2c(F)cccc2OC)=NC3)ccc1C(=O)O [alisertib]
Procedure, shortened: as §1

gefitinib = compound: COc1cc2ncnc(Nc3ccc(F)c(Cl)c3)c2cc1OCCCN1CCOCC1 [gefitinib]
Procedure, shortened: as §1

saracatinib = compound: CN1CCN(CCOc2cc(OC3CCOCC3)c3c(Nc4c(Cl)ccc5c4OCO5)ncnc3c2)CC1 [saracatinib]
Procedure, shortened: as §1

[9] = compound: CNc1nc(-c2ccc3c(N)n[nH]c3c2)cc(N2C[C@@H](C(=O)NC3CCCCC3)CC[C@H]2C)n1
Procedure, shortened: as §1

vemurafenib = compound: CCCS(=O)(=O)Nc1ccc(F)c(C(=O)c2c[nH]c3ncc(-c4ccc(Cl)cc4)cc23)c1F [vemurafenib]
Procedure, shortened: as §1

defactinib = compound: CNC(=O)c1ccc(Nc2ncc(C(F)(F)F)c(NCc3nccnc3N(C)S(C)(=O)=O)n2)cc1 [defactinib]
Procedure, shortened: as §1

Measured: log2 fold change

METTL5 (UniProt H0YFV5)
inactive: [1] 0.015 | barasertib 0.005 | volasertib -0.015 | sotrastaurin -0.026 | [2] 0.088 | [3] 0.086

METAP2 isoform 2 (UniProt P50579)
inactive: [4] -0.04 | [5] 0.079 | [6] -0.101 | [7] 0.191 | alvocidib -0.019 | Tubastatin A 0.179 | encorafenib 0.024 | [8] -0.032 | alisertib 0.066 | gefitinib 0.057

MFSD9 (UniProt Q8NBP5)
inactive: saracatinib 0.042 | [9] 0.056

Fetched one by one from the list above, 2 records:
METTL5 (UniProt H0YFV5)
inactive: [1] 0.015 | barasertib 0.005 | volasertib -0.015 | sotrastaurin -0.026 | [2] 0.088 | [3] 0.086

METAP2 isoform 2 (UniProt P50579)
inactive: [4] -0.04 | [5] 0.079 | [6] -0.101 | [7] 0.191 | alvocidib -0.019 | Tubastatin A 0.179 | encorafenib 0.024 | [8] -0.032 | alisertib 0.066 | gefitinib 0.057

Additional records follow.

MED9 (UniProt Q9NWA0)
inactive: [1] 0.088 | volasertib 0.073 | [5] 0.009 | [6] 0.059 | [7] -0.094 | saracatinib 0.068 | sotrastaurin -0.117 | alvocidib 0.125 | Tubastatin A 0.042 | [9] 0.087 | alisertib 0.122 | [3] -0.023 | gefitinib -0.15

MEGF8 (UniProt Q7Z7M0)
inactive: barasertib 0.049 | [4] 0.076 | [5] -0.048 | [6] 0.124 | [7] 0.028 | saracatinib 0.283 | sotrastaurin -0.003 | alvocidib 0.03 | Tubastatin A 0.156 | [2] 0.058 | [9] -0.051 | encorafenib -0.01 | [8] 0.131

MFAP3 (UniProt P55082)
inactive: vemurafenib 0.128 | [5] 0.124 | [6] -0.04 | [7] 0.05 | saracatinib 0.158 | sotrastaurin -0.018 | alvocidib 0.041 | Tubastatin A 0.005 | [2] -0.138 | defactinib 0.021 | [9] -0.181

MEX3B (UniProt Q6ZN04)
inactive: [1] -0.004 | barasertib -0.078 | [4] 0.24 | volasertib 0.281 | [5] -0.04 | [6] -0.167 | [7] -0.011 | saracatinib 0.024 | alvocidib -0.026 | Tubastatin A 0.09 | [2] 0.064 | [9] 0 | encorafenib -0.176 | [8] 0.056 | alisertib 0.083 | [3] -0.076 | gefitinib -0.038

MCPH1 (UniProt Q8NEM0)
inactive: [6] 0.125 | [7] 0.006 | sotrastaurin -0.193 | alvocidib 0.214

MBD6 (UniProt Q96DN6)
inactive: saracatinib 0.281 | [9] 0.044

MED25 isoform 3 (UniProt Q71SY5)
inactive: [1] 0.018 | barasertib 0.034 | volasertib -0.032 | [5] -0.046 | [6] 0.013 | [7] -0.056 | saracatinib 0.032 | sotrastaurin 0.083 | alvocidib 0 | Tubastatin A 0.056 | [2] -0.033 | [9] -0.022 | encorafenib -0.123 | [8] 0.005 | alisertib 0.125 | [3] 0.01 | gefitinib -0.029
active: [4] -0.256

MBD4 (UniProt O95243)
inactive: [1] -0.153 | [4] 0.036 | volasertib -0.083 | [6] 0.007 | [7] -0.021 | saracatinib -0.223 | sotrastaurin 0.106 | alvocidib -0.024 | [9] -0.062 | encorafenib 0.138 | [8] -0.034 | alisertib -0.019 | [3] -0.123 | gefitinib 0.032

MED21 (UniProt Q13503)
inactive: [1] 0.133 | barasertib 0.063 | [4] 0.225 | volasertib 0.096 | [5] 0.035 | [6] 0.013 | [7] -0.022 | saracatinib 0.034 | sotrastaurin 0.029 | alvocidib 0.111 | Tubastatin A 0.079 | [2] 0.087 | [9] 0.076 | encorafenib 0.057 | [8] -0.106 | alisertib 0.03 | [3] -0.222 | gefitinib -0.221

MEX3A (UniProt A1L020)
inactive: vemurafenib -0.094 | [5] 0.191 | saracatinib 0.055 | Tubastatin A 0.037 | defactinib -0.068 | [9] 0.037 | alisertib -0.097 | gefitinib 0.207

MED31 (UniProt Q9Y3C7)
inactive: [1] -0.016 | barasertib 0.068 | volasertib 0.057 | [5] 0.056 | [6] -0.068 | [7] -0.06 | saracatinib 0.06 | sotrastaurin -0.029 | alvocidib -0.08 | Tubastatin A -0.056 | [2] 0.088 | [9] 0.068 | alisertib 0.029 | [3] 0.025 | gefitinib -0.031

MFSD11 (UniProt O43934)
inactive: [1] 0.064 | barasertib -0.016 | volasertib -0.033 | [5] -0.051 | [6] -0.095 | [7] 0.084 | alvocidib -0.059 | Tubastatin A -0.036 | [2] 0.016 | [3] 0.094

MEIOB isoform 2 (UniProt Q8N635)
inactive: [6] -0.048 | [7] -0.181 | saracatinib -0.019 | alvocidib 0.115 | [9] 0.148 | alisertib 0.007 | gefitinib 0.095

METTL7B (UniProt Q6UX53)
inactive: [2] 0.291

METTL17 isoform 3 (UniProt Q9H7H0)
inactive: [4] 0.093 | [6] -0.027 | [7] 0.133 | alvocidib 0.15 | encorafenib -0.041 | [8] -0.108 | alisertib 0.106 | gefitinib 0.214

MDM4 (UniProt O15151)
inactive: vemurafenib 0.013 | [4] 0.027 | [6] 0.081 | [7] -0.09 | saracatinib 0.227 | sotrastaurin 0.125 | alvocidib -0.139 | defactinib 0.008 | [9] 0.063 | encorafenib -0.263 | [8] 0.204
